The list does not hold the whole screen: it is rich in T/C values a quarter to a half above the control, in often repeated tests (any T/C) and in doses without a T/C. Further doses and runs are listed elsewhere. T/C: endpoint of the treated group in % of that of the vehicle group. Some doses have a count of surviving animals in place of a T/C: the source holds a T/C of zero for them, seemingly a mark for toxic or unscored doses. Some survivor counts are full or nearly so, which does not show that the dose was tolerated: the source hardly ever lists a survival T/C far under the control, and the zero likely stands for such cases as well. Survivors were counted at the toxicity check, usually on the fifth day, unless a day is given; later deaths do not show. Schedules are NCI's codes, taken here to give the interval after Q, in days (D) or hours (H), and the number of doses after X. Some entries were tested several times; their values stand side by side, smallest first. Where survival is the endpoint, the PubChem record calls one and a half times the control and up active, and a quarter to a half above the control has no call in these data; cut-offs in other NCI protocols can differ.
Tested on: B6C3F1 mice, B16 melanoma ip, median survival T/C
Assay: NCI In Vivo Anticancer Drug Screen. Data for tumor model B16 Melanoma (intraperitoneal) in B6C3F1 mice
Settings: T/C endpoint: median survival time, higher T/C = longer survival
Method in brief: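 Antitumor effect was judged in mice with transplanted tumors by dividing the treated group's survival measure by that of vehicle controls.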

[1] = dose: 400.0 mg/kg/injection, schedule: Q01DX009 (ip), vehicle: saline
[2] = dose: 25.0 mg/kg/injection, schedule: Q01DX009 (ip), vehicle: saline with Tween-80
[3] = dose: 50.0 mg/kg/injection, schedule: Q01DX009 (ip), vehicle: saline with Tween-80
[4] = dose: 100.0 mg/kg/injection, schedule: Q01DX009 (ip), vehicle: saline with Tween-80
[5] = dose: 50.0 mg/kg/injection, schedule: Q01DX009 (ip), vehicle: saline
[6] = dose: 100.0 mg/kg/injection, schedule: Q01DX009 (ip), vehicle: saline
[7] = dose: 200.0 mg/kg/injection, schedule: Q01DX009 (ip), vehicle: saline with Tween-80
[8] = dose: 400.0 mg/kg/injection, schedule: Q01DX009 (ip), vehicle: saline with Tween-80
[9] = dose: 400.0 mg/kg/injection, schedule: Q01DX009 (ip), vehicle: Klucel (hydroxypropylcellulose) (HPC)

COc1ccc(CC2C(=O)NC(C)C(=O)N(C)C3C(=O)N(C)C(Cc4ccc(O)c(c4)Oc4ccc(cc4)C3O)C(=O)NC(C)C(=O)NC(C)C(=O)N2C)cc1 (centres undefined)
T/C (dose: 0.25 mg/kg/injection, schedule: Q01DX009 (ip), vehicle: saline with Tween-80): 141 % of control | T/C (dose: 0.5 mg/kg/injection, schedule: Q01DX005 (ip), vehicle: saline with Tween-80): 131 % of control | T/C (dose: 1.0 mg/kg/injection, schedule: Q01DX005 (ip), vehicle: saline with Tween-80): 129 % of control | T/C (dose: 1.0 mg/kg/injection, schedule: Q01DX009 (ip), vehicle: saline with Tween-80): 147 % of control | T/C (dose: 2.0 mg/kg/injection, schedule: Q01DX005 (ip), vehicle: saline with Tween-80): 129 % of control | survivor count (dose: 4.0 mg/kg/injection, schedule: Q01DX005 (ip), vehicle: saline with Tween-80): 3 of 10 | survivor count (dose: 4.0 mg/kg/injection, schedule: Q01DX005 (iv), vehicle: saline with Tween-80): 2 of 10 and 6 of 10 | T/C (dose: 4.0 mg/kg/injection, schedule: Q01DX009 (ip), vehicle: saline with Tween-80): 133 % of control

Cn1cnc([N+](=O)[O-])c1Sc1ncn[nH]1
survivor count [1]: 7 of 10 | survivor count (dose: 400.0 mg/kg/injection, schedule: Q01DX009 (ip), vehicle: suspension in saline): 0 of 10

C=C(C(=O)O)C(N)C(=O)O (centres undefined)
survivor count [1]: 8 of 10

COc1ccc(S(=O)(=O)N=N/C=C2\C=CC=CN2O)cc1OC
T/C (dose: 12.0 mg/kg/injection, schedule: Q01DX009 (ip), vehicle: saline with Tween-80): 130 % of control | T/C [2]: 127 % of control | T/C [3]: 147 % of control | T/C [4]: 140 % of control

NCCCNCCCCNC(=O)C(O)NC(=O)CCCCCCN=C(N)N (centres undefined)
T/C (dose: 25.0 mg/kg/injection, schedule: Q01DX009 (ip), vehicle: saline): 126 % of control | survivor count [5]: 0 of 10 | survivor count [6]: 0 of 10

O=NN(CCCl)C(=O)NC1CCC(=O)NC1=O (centres undefined)
T/C (dose: 1.6 mg/kg/injection, schedule: Q01DX005 (iv), vehicle: saline + alcohol): 128 % of control | T/C (dose: 4.0 mg/kg/injection, schedule: Q01DX001 (ip), vehicle: saline + alcohol): 142 % of control | T/C (dose: 4.0 mg/kg/injection, schedule: Q01DX001 (iv), vehicle: saline + alcohol): 126 % of control | T/C (dose: 4.0 mg/kg/injection, schedule: Q01DX005 (oral), vehicle: saline + alcohol): 130 % of control | T/C (dose: 6.4 mg/kg/injection, schedule: Q01DX005 (iv), vehicle: saline + alcohol): 137 % of control | T/C (dose: 8.0 mg/kg/injection, schedule: Q01DX001 (iv), vehicle: saline + alcohol): 127 % of control | T/C (dose: 8.0 mg/kg/injection, schedule: Q01DX001 (oral), vehicle: saline + alcohol): 132 % of control | survivor count (dose: 12.8 mg/kg/injection, schedule: Q01DX005 (ip), vehicle: saline + alcohol): 10 of 10 | survivor count (dose: 12.8 mg/kg/injection, schedule: Q01DX005 (iv), vehicle: saline + alcohol): 10 of 10 | survivor count (dose: 16.0 mg/kg/injection, schedule: Q01DX005 (ip), vehicle: saline + alcohol): 10 of 10 | survivor count (dose: 16.0 mg/kg/injection, schedule: Q01DX005 (iv), vehicle: saline + alcohol): 10 of 10 | survivor count (dose: 16.0 mg/kg/injection, schedule: Q01DX005 (oral), vehicle: saline + alcohol): 10 of 10 | survivor count (dose: 32.0 mg/kg/injection, schedule: Q01DX001 (ip), vehicle: saline + alcohol): 10 of 10 | survivor count (dose: 32.0 mg/kg/injection, schedule: Q01DX001 (iv), vehicle: saline + alcohol): 9 of 10 | survivor count (dose: 32.0 mg/kg/injection, schedule: Q01DX005 (ip), vehicle: saline + alcohol): 10 of 10 | survivor count (dose: 32.0 mg/kg/injection, schedule: Q01DX005 (iv), vehicle: saline + alcohol): 9 of 10 | survivor count (dose: 32.0 mg/kg/injection, schedule: Q01DX005 (oral), vehicle: saline + alcohol): 9 of 10 | survivor count (dose: 64.0 mg/kg/injection, schedule: Q01DX001 (ip), vehicle: saline + alcohol): 10 of 10 | survivor count (dose: 64.0 mg/kg/injection, schedule: Q01DX001 (iv), vehicle: saline + alcohol): 10 of 10 | survivor count (dose: 64.0 mg/kg/injection, schedule: Q01DX001 (oral), vehicle: saline + alcohol): 9 of 10 | survivor count (dose: 64.0 mg/kg/injection, schedule: Q01DX005 (oral), vehicle: saline + alcohol): 7 of 10 | survivor count (dose: 128.0 mg/kg/injection, schedule: Q01DX001 (oral), vehicle: saline + alcohol): 9 of 10

COc1cccc2c1C(=O)c1c(O)c3c(c(O)c1C2=O)C[C@@](O)(C(O)CO)C[C@@H]3OC1CC(N(Cc2ccccc2)Cc2ccccc2)C(O)C(C)O1 (some centres undefined)
T/C (dose: 12.5 mg/kg/injection, schedule: Q01DX001 (ip), vehicle: water): 127 % of control | T/C (dose: 25.0 mg/kg/injection, schedule: Q01DX001 (ip), vehicle: water): 140 % of control | T/C (dose: 25.0 mg/kg/injection, schedule: Q01DX009 (ip), vehicle: water): 149 % of control | survivor count (dose: 100.0 mg/kg/injection, schedule: Q01DX009 (ip), vehicle: water): 9 of 10 | survivor count (dose: 200.0 mg/kg/injection, schedule: Q01DX009 (ip), vehicle: water): 9 of 10 | survivor count (dose: 400.0 mg/kg/injection, schedule: Q01DX009 (ip), vehicle: water): 5 of 10

O=c1[nH]cccc1O
survivor count (dose: 512.0 mg/kg/injection, schedule: Q01DX009 (ip), vehicle: saline with Tween-80): 7 of 10

C=C1N(C)c2ccccc2C1(C)C
survivor count (dose: 12.5 mg/kg/injection, schedule: Q01DX009 (ip), vehicle: saline with Tween-80): 9 of 10 | survivor count [2]: 4 of 10 and 6 of 10 | survivor count [3]: 2 of 10 and 9 of 10 | survivor count [4]: 0 of 10 and 4 of 10 | survivor count [7]: 0 of 10 | survivor count [8]: 0 of 10

Clc1cc(Cl)c(C[N+]23CN4CN(CN(C4)C2)C3)cc1Cl
survivor count [7]: 5 of 10 | T/C (dose: 200.0 mg/kg/injection, schedule: Q01DX009 (ip), vehicle: saline): 125 % of control | survivor count [8]: 0 of 10 | survivor count [1]: 0 of 10

C[Si](C)(C)n1nnn(-c2ccccc2)c1=O
survivor count [8]: 0 of 10

CC(C)CC(NC(=O)CCl)C(=O)O (centres undefined)
survivor count [3]: 10 of 10 | survivor count [4]: 10 of 10 | survivor count [7]: 10 of 10 | survivor count [8]: 5 of 10

CC[C@@]1(O)C[C@H](OC2CC(N(C)C)C(OC3CC(O)C(O[C@@H]4O[C@@H](C)C(=O)C=C4N)C(C)O3)C(C)O2)c2c(cc3c(c2O)C(=O)c2c(O)ccc(O)c2C3=O)[C@H]1C(=O)OC (some centres undefined)
T/C (dose: 0.38 mg/kg/injection, schedule: Q01DX009 (ip), vehicle: saline): 134 % of control | T/C (dose: 1.6 mg/kg/injection, schedule: Q01DX001 (ip), vehicle: suspension in saline): 133 % of control

C=CCOc1cc2c(cc1C(C)c1ccc(OC)cc1)OCO2 (centres undefined)
T/C (dose: 100.0 mg/kg/injection, schedule: Q01DX009 (ip), vehicle: Klucel (hydroxypropylcellulose) (HPC)): 127 % of control | survivor count (dose: 200.0 mg/kg/injection, schedule: Q01DX009 (ip), vehicle: Klucel (hydroxypropylcellulose) (HPC)): 10 of 10 | survivor count [9]: 6 of 10 and 10 of 10 | survivor count (dose: 800.0 mg/kg/injection, schedule: Q01DX009 (ip), vehicle: Klucel (hydroxypropylcellulose) (HPC)): 8 of 10

CN(C)C(=O)SC1=C(c2c(Cl)cccc2Cl)C(=O)c2ccccc21
survivor count [9]: 10 of 10

O=P(O)(NCCCl)NCCCl
T/C (dose: 50.0 mg/kg/injection, schedule: Q01DX001 (ip), vehicle: saline with Tween-80): 136 % of control | survivor count (dose: 400.0 mg/kg/injection, schedule: Q01DX001 (ip), vehicle: saline with Tween-80): 6 of 10 on day 9 and 10 of 10 on day 9

CCCCCCCCCCCCOCCCOP(=O)([O-])OCC[N+](C)(C)C
survivor count [5]: 10 of 10 | survivor count [6]: 10 of 10

COC(=O)C(F)C(Br)C(=O)OC (centres undefined)
survivor count [4]: 4 of 10

From PubChem BioAssay AID200 (DTP/NCI, 2004)
